For this experiment, the target named is mixed-lineage kinase domain-like protein (MLKL) (mouse (endogenous in 3T3-L1)) (UniProt Q9D2Y4). Briefly: reducing SDS-PAGE and immunoblot; 3T3-L1 adipocytes incubated with GluOC for 24 h; cell lysates prepared in the presence of 2.5% 2-mercaptoethanol; immunoblot with antibodies to MLKL. A general note: In western blotting, separated proteins are transferred to a membrane and probed.

These are yes or no findings as the source states them, for the method shown.

B1: mixed-lineage kinase domain-like protein (MLKL) (natural protein, mouse (endogenous in 3T3-L1), UniProt Q9D2Y4 1-472, looked up)
chain: MDKLGQIIKLGQLIYEQCEKMKYCRKQCQRLGNRVHGLLQPLQRLQAQGKKNLPDDITAALGRFDEVLKEANQQIEKFSKKSHIWKFVSVGNDKILFHEVNEKLRDVWEELLLLLQVYHWNTVSDVSQPASWQQEDRQDAEEDGNENMKVILMQLQISVEEINKTLKQCSLKPTQEIPQDLQIKEIPKEHLGPPWTKLKTSKMSTIYRGEYHRSPVTIKVFNNPQAESVGIVRFTFNDEIKTMKKFDSPNILRIFGICIDQTVKPPEFSIVMEYCELGTLRELLDREKDLTMSVRSLLVLRAARGLYRLHHSETLHRNISSSSFLVAGGYQVKLAGFELSKTQNSISRTAKSTKAERSSSTIYVSPERLKNPFCLYDIKAEIYSFGIVLWEIATGKIPFEGCDSKKIRELVAEDKKQEPVGQDCPELLREIINECRAHEPSQRPSVDGRSLSGRERILERLSAVEESTDKKV
notes: mixed-lineage kinase domain-like protein (MLKL), endogenous in 3T3-L1 adipocytes treated with GluOC; High-dose GluOC induces phosphorylation of MLKL, printed as Thr357/Ser358; these numbers may be those of human MLKL although the cells are mouse; source: endogenous, 3T3-L1 adipocyte lysate
For B1, the binding result is on record as “no binding (condition: with 2.5% 2-mercaptoethanol)”.
